Data as given in PubChem BioAssay AID1259279 (Sanger Institute, 2017)
Purpose: 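Kinases that colorectal cancer cells need to survive, alone or with drugs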 (primary screen). Cells: LS180 human colorectal cancer cells. Knock-down reagent: siRNA pool against human genes. Treatment: anchor drug BYL719 at 1 µM, cetuximab at 5 µg/ml or trametinib at 10 nM, or DMSO vehicle only. Measurement: 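Viability as a fraction of non-targeting control and as a replicate-averaged robust z-score, with separate synergy scores for BYL719, cetuximab and trametinib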. Reading the numbers: viability z-score, no drug: higher = more viable cells after knock-down; viability, no drug: higher = more viable cells; synergy score with BYL719 and synergy score with cetuximab and synergy score with trametinib: higher = stronger synthetic lethal synergy with drug. Active means: 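Essential (active) calls need a no-drug viability z-score lower than -3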. Calls: active = essential (knock-down alone cuts viability); inactive = no change without drug.
Shown is one part, drawn at random, of 794 reagents. 11 of all reagents (1.4%) count as active. 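Calls reflect knock-down alone in the vehicle arm, not drug synergy.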 Entries without a mark were called inactive. No viability above 1 is reported: the scale is capped. Not given: the amount of reagent, the time to read-out.

| gene | PubChem SID | viability z-score, no drug | viability, no drug (fraction) | synergy score with BYL719 | synergy score with cetuximab | synergy score with trametinib |
| --- | --- | --- | --- | --- | --- | --- |
| DAPK2 | SID152156399 | 0.14 | 0.921 | -0.0823 | -0.142 | -0.17 |
| TAF1 | SID56478970 | -0.281 | 0.876 | -0.0758 | -0.141 | -0.0431 |
| TBK1 | SID56478726 | 0.86 | 1 | 0.0797 | 0.0484 | -0.012 |
| JAK1 | SID152154758 | 0.792 | 0.993 | 0.0439 | -0.054 | -0.0111 |
| TSSK2 | SID56479050 | -2.24 | 0.662 | -0.113 | -0.107 | -0.0612 |
| PFKFB1 | SID135621245 | -1.85 | 0.704 | -0.0322 | -0.0974 | 0.0046 |
| AKT1 | SID135620599 | 0.86 | 1 | -0.0971 | -0.04 | 0.0274 |
| RPS6KA1 | SID152152227 | -0.149 | 0.89 | -0.0795 | -0.067 | -0.0615 |
| PKIA | SID56479258 | -0.896 | 0.808 | -0.183 | -0.326 | -0.287 |
| MTOR | SID135620602 | 0.86 | 1 | -0.0389 | -0.116 | 0.0165 |
| KIT | SID152151885 | 0.368 | 0.946 | 0.0181 | -0.107 | -0.103 |
| TSKS | SID56479267 | 0.86 | 1 | -0.0862 | -0.15 | -0.0698 |
| CAMK4 | SID56478933 | -0.317 | 0.872 | 0.0171 | -0.22 | -0.0443 |
| IRAK3 | SID56478864 | -0.0176 | 0.904 | 0.156 | 0.0419 | 0.122 |
| MAP3K1 | SID152150888 | 0.86 | 1 | 0.0207 | -0.012 | 0.05 |
| WNK3 | SID152156066 | 0.86 | 1 | -0.178 | -0.166 | -0.131 |
| ALDH18A1 | SID152152799 | 0.844 | 0.998 | -0.118 | -0.108 | -0.0409 |
| MAP4K3 | SID135620707 | -0.596 | 0.841 | -0.125 | 0.0214 | 0.0422 |
| STK33 | SID56479053 | 0.86 | 1 | -0.0675 | -0.0953 | 0.0197 |
| ANKK1 | SID56478922 | -0.0187 | 0.904 | -0.0593 | -0.102 | 0.0648 |

Targets listed so far whose gene name starts with M or m:
| gene | PubChem SID | viability z-score, no drug | viability, no drug (fraction) | synergy score with BYL719 | synergy score with cetuximab | synergy score with trametinib |
| --- | --- | --- | --- | --- | --- | --- |
| MTOR | SID135620602 | 0.86 | 1 | -0.0389 | -0.116 | 0.0165 |
| MAP3K1 | SID152150888 | 0.86 | 1 | 0.0207 | -0.012 | 0.05 |
| MAP4K3 | SID135620707 | -0.596 | 0.841 | -0.125 | 0.0214 | 0.0422 |
